From article PMC9227305 (Marine Drugs, 2022)

Assay: general procedure: solution-phase peptide synthesis; EEDQ
Details: cyclisation step

Substance	cyclisation yield [%]	cyclisation yield (run 1) [%]
3-Hydroxy-isoindolinone-cyclo-(Gly-Leu-N-Me-Leu-Leu-N-Me-Leu-Leu)	51	
3-Hydroxy-isoindolinone-cyclo-Gly-Leu-Leu-Leu-N-Me-Leu-Leu		28
3-Hydroxy-isoindolinone-cyclo-Gly-Leu-N-Me-Leu-Leu-Leu-Leu		23
3-Hydroxy-isoindolinone-cyclo-Gly-Leu-Leu-Leu-N-Me-Leu-Leu [5]		24
3-Hydroxy-isoindolinone-cyclo-Gly-Leu-N-Me-Leu-Leu-Leu-Leu [6]		25
